This passage reports binding results from publication PMC4311984.

No constants are given. Whether binding was seen depends on the method and setting.

Experiment [1] has as its target celery allergen Api g 1.0101 (celery) (UniProt P49372). As to the kind of experiment: SEC; Superdex S75 10/300; 75 μl of protein at 1 mg/ml injected; 50 mM Na-phosphate buffer, pH 7.4, 150 mM NaCl, 0.02% (w/v) sodium azide; calibrated with Bio-Rad Gel Filtration Standard and bovine aprotinin; duplicates; both purified.
For experiment [2], the target named is T1, major birch pollen allergen Bet v 1.0101 (birch), P15494.
T1 chain: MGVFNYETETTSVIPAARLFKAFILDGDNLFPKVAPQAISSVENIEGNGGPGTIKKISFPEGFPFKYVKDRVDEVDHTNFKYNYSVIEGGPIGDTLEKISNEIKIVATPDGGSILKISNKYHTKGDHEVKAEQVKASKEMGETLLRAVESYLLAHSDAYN
The description is as above. As to conditions: remark: other sources report otherwise.

B1: celery allergen Api g 1.0101 (protein, UniProt P49372 1-154)
chain: MGVQTHVLELTSSVSAEKIFQGFVIDVDTVLPKAAPGAYKSVEIKGDGGPGTLKIITLPDGGPITTMTLRIDGVNKEALTFDYSVIDGDILLGFIESIENHVVLVPTADGGSICKTTAIFHTKGDAVVPEENIKYANEQNTALFKALEAYLIAN
As to B1, the binding result in experiment [1] was “no binding (tested: 1 mg/ml)”.

B2: major birch pollen allergen Bet v 1.0101, P15494 1-160 (protein)
chain: T1 chain
On to B2, for which the binding entry in experiment [2] is “no binding (tested: 1 mg/ml)”.
